Test [1] concerns the target FRα covalently bound to a CM5 sensor chip (UniProt P15328). Description: SPR (Biacore T200), FRα amine-coupled to a CM5 chip; fast dissociation, the binding of MOv18 FAb was substantially nil at time 300 sec. A general note: Surface plasmon resonance follows binding to a sensor surface in real time, without labels.
Test [2] addresses alpha-folate receptor (FRα) on tumor cells (UniProt P15328). Description: FACS on tumor cells, 10 µg/ml, Alexa488 anti mouse detection.

The chains behind the UniProt entries cited, without tags or fusion partners. Residues count along the entry.
UniProt P15328, residues 25-234: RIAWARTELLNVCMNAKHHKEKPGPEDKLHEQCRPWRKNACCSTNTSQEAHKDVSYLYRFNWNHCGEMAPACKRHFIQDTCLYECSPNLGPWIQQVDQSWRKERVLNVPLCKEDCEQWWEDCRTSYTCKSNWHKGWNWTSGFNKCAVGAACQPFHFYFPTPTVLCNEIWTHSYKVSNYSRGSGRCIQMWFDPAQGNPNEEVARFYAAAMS

These are yes or no findings as the source states them, for the method shown. Some results given as binding are weak or reduced against the parent protein; the word gives no strength.

B1: MOv18 Fab (SEQ. ID. NOs: 7-8) (Fab, V domains shown)
VH: QVQLQQSGAELARPGASVKLSCKASDYIFTNYDITWVKQRPGQGLEWIGEIDPRSGKSYYNEKFKGKSTLTADKSSSTAYMELRSLTSEDSAVYFCATMYYYGSSPPMDYWGQGTSVTVSR
VL: DIQMTQTTSSLSASLGDRVTISCRASQDINNFLNWYQQKPDGTVKLLIYYTSRLHSGVPSRFSGSGSGTDYSLTIINLEQEDIAIYFCQQSSTIPRTFGQGTKLEIK
With B1, the binding entry in test [1] and in test [2] was “binds” throughout.

Source of the values: US20240417457A1.
